At least one read-out could not be matched to a standard name with certainty.
Test system: MV4;11 cells
Experiment: Cell viability assay (CellTiter-Glo) in MV4;11 cells
Format: cell-based
Settings: read-out: MV4, 11 IC50 (nM) + 10 nM Gil, with 10 nM gilteritinib, three days
Procedure: Cell Culture: RS4;11, MV4;11, MOLM-13 and other cells were cultured at 37° C. with 5% CO2 in RPMI 1640 or DMEM Medium supplemented with 10% fetal bovine serum. Cells were authenticated using the short tandem repeat (STR) assays. Mycoplasma test results were negative.
Cell viability assays: Cells were seeded at a density of 5000 cells per well in 96-well assay plates and treated with test compounds following a 8-point or 12-point 3-fold serial dilution. Three days later, cell viability was determined using the CellTiter-Glo assay kit according to the manufacturer's instructions. The dose-response curves were determined and IC50 values were calculated using the GraphPad Prism software following a nonlinear regression (least squares fit) method.
The IC50 values (nM) of each compound were determined in MV4;11 and MOLM-13 cells with or without gilteritinib (10 nM for MV4;11; and 20 nM for MOML-13) as described in the Materials and Methods subsection and calculated using the GraphPad Prism 5.0 software.

SMILES: O=C1CCC(N2C(=O)c3ccc(NC[C@H]4C[C@H](n5cc(Nc6ccncc6)c(C6CC6)n5)C4)cc3C2=O)C(=O)N1 (stereo partly drawn) [GS-671, 5-(((Trans-3-(3-cyclopropyl-4-(pyridin-4-ylamino)-1H-pyrazol-1-yl)cyclobutyl)methyl)amino)-2-(2,6-dioxopiperidin-3-y)isoindoline-1,3-dione]
- IC50: > 1000 nM

From patent publication US20250221988A1 (Cullgen (Shanghai), Inc., priority 2022, published 2025)
